Laboratory results as given in paper PMC9929473, “Ensembles of human myosin-19 bound to calmodulin and regulatory light chain RLC12B drive multimicron transport” (The Journal of Biological Chemistry, 2023).
No constants are given. Whether binding was seen depends on the method and setting. In cells and extracts the contact can be indirect. Here binding means that the protein was enriched with, or labelled near, the bait; the list need not be complete. A no says only that the protein was not detected with the bait.

Amino acid sequences for entries named in this document (tags omitted).
UniProt O14950: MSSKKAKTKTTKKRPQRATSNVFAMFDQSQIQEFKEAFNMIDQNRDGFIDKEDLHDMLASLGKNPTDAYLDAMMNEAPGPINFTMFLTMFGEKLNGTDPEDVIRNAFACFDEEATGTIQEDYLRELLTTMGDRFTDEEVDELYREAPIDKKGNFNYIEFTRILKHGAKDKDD
UniProt P60660: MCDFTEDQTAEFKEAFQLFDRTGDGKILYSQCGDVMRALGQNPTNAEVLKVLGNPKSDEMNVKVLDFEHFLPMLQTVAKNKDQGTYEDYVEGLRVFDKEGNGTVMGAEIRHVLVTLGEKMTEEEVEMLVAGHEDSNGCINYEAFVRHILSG

Experiments:
[1] = target: Myo19-3xIQ (human myosin-19, amino acids 1–851) with N-terminal FLAG and C-terminal Strep-Tactin tag (human) (UniProt Q96H55); experiment: affinity purification with mass spectrometry; FLAG-Myo19-3xIQ-Strep expressed in Expi293; tandem Strep-Tactin XT and anti-FLAG purification from lysate; 50 mM Hepes pH 7.5, 150 mM NaCl, 5 mM MgCl2, 1 mM EGTA, 5 mM ATP in lysis; LC-MS/MS of the 12 to 30 kDa range; motor domain (MD) as control sample
[2] = target: Myo19-3xIQ (human myosin-19, amino acids 1–851) with N-terminal FLAG and C-terminal Strep-Tactin tag (human) (UniProt Q96H55); experiment: affinity purification with mass spectrometry; as a1 but with 1 mM CaCl2 added instead of EGTA

Row | binding [1] | binding [2] | Substance
1 | binds | binds | Regulatory light chain RLC12B (MYL12B), endogenous in Expi293 cells (from UniProt O14950 1-172)
2 | no binding | no binding | Cytoplasmic essential light chain MYL6 (ELC6), endogenous in Expi293 cells (from UniProt P60660 1-151)
